# Test results: doi:10.1101/2024.12.17.628051
# Results are given in words; binding and its absence hold for the method and conditions named. Some binding calls cover weakened binding; strength is not graded here. For some assays here: Tags and fused reporters may be left off the sequences shown.
# T1: His-STRAD (residues 59-431), wild type (C160) (UniProt Q7RTN6)
# T1 sequence: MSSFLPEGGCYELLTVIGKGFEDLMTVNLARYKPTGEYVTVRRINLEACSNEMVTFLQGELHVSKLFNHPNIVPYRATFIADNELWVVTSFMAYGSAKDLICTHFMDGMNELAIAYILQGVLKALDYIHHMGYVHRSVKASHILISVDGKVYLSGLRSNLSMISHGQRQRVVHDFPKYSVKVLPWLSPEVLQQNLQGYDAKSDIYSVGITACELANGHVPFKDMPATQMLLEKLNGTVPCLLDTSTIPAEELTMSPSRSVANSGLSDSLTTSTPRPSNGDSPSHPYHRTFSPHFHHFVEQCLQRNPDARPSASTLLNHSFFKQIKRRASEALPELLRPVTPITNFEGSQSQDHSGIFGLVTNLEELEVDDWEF
# B1: MO25 (residues 1-341) (protein, UniProt Q9Y376 1-341)
# chain: MPFPFGKSHKSPADIVKNLKESMAVLEKQDISDKKAEKATEEVSKNLVAMKEILYGTNEKEPQTEAVAQLAQELYNSGLLSTLVADLQLIDFEGKKDVAQIFNNILRRQIGTRTPTVEYICTQQNILFMLLKGYESPEIALNCGIMLRECIRHEPLAKIILWSEQFYDFFRYVEMSTFDIASDAFATFKDLLTRHKLLSAEFLEQHYDRFFSEYEKLLHSENYVTKRQSLKLLGELLLDRHNFTIMTKYISKPENLKLMMNLLRDKSRNIQFEAFHVFKVFVANPNKTQPILDILLKNQAKLIEFLSKFQNDRTEDEQFNDEKTYLVKQIRDLKRPAQQEA
# What was measured:
# [1] = biological target: His-STRAD (residues 59-431 with C160S mutation) (UniProt Q7RTN6); assay: SEC
# [2] = biological target: T1, His-STRAD (residues 59-431), wild type (C160); assay: SEC
binder,measurement,setting,value
B1,binding,[1],binds
same,binding,[2],binds
